Test results: patent US11273136B2, “Method for increasing protein content in milk of lactating cows” (neopharma Japan Co., Ltd., priority 2019, dated 2022)

System: lactating Holstein milk cows
Test: Crossover feeding test of 5-ALA-supplemented total mixed ration on milk yield and milk composition of lactating cows
Format: in vivo
From the text: Effects of ALAs on the milk composition of a lactating cow was studied. Six lactating Holstein milk cows (average body weight 698±18 kg, average milk production 24.1±1.6 kg/d, average days-in-milk (DIM) 209±34 days, and average number of lactations 2.9±0.4) were placed in a free stable. After a 7-day grace period, 6 cows were randomly assigned to section A and section B (each group n=3). Section A had, after a grace period, an ALA administration period of 14 days (ALA Consumption Group A), with an adjustment period of 7 days interposed, followed by an ALA non-administration period of 14 days (Control Group A), whereas Section B had, after a grace period, an ALA non-administration period of 14 days (Control Group B), with an adjustment period of 7 days interposed, followed by an ALA administration period of 14 days (ALA Consumption Group B), whereby the test was carried out by the crossover method. A total mixed ration (TMR) (see Table 2) which had been used was fed during the above grace period, adjustment period and ALA non-administration period, and a feed to which 10 mg of 5-ALA was added per kg of the total mixed ration (TMR) was fed during the ALA administration period.
5-ALA was provided by neopharma Japan Co., Ltd. Each feed and water were available at any time but feed consumption of each group on a dry base was 23.4 kg/day per cow in the control groups and 23.6 kg/day per cow in the ALA groups. Thus, the daily consumption of 5-ALA in the ALA groups was 0.329.6 mg to 0.347.1 mg/kg b.w./day. Each of the milk cows was milked at 09:00 and 17:00 and allowed to consume each feed at any time after milking.
Amounts of Milking from each cow were automatically recorded everyday by an auto milk recorder (manufactured by ORION MACHINERY CO., LTD.). Additionally, for each group of Section A and Section B, during the last 2 days in the ALA administration period of 14 days and the non-administration period of 14 days, 50 to 100 mL of milk was collected twice a day from cows of each period to use as milk samples for data analysis. The milk samples were preserved at −30° C. until the milk composition and the like were analyzed.
Using the above milk samples collected from each of the cows, the milk composition such as milk fat, proteins, casein, lactose, total solid (TS), solid not fat (SNF), milk urea nitrogen (MUN) and somatic cell count (SCC) was measured using a […] infrared spectroscopy (Milko-Scan, 133N, manufactured by Foss Electric, Hill-erod (Denmark)). Data of each cow were calculated as an average value of 4 milk samples collected for 2 days. […] The data were analyzed statistically as a crossover design using the mixing procedure of SPSS (PASW Statistics 18.0, manufactured by IBM). […]

[1] = 10 mg 5-ALA per kg TMR, 14 days, milk of last 2 days, ± standard error

Q: Which “MUN (milk urea nitrogen)” value [1] does the source give for `NCC(=O)CCC(=O)O` [5-ALA, 5-aminolevulinic acid] here?
A: 14.87 ± 2.56 mg/dL

Q: What about the Somatic cell count [1] of the same compound?
A: 7.04 ± 0.62 ×10^3 cells/mL

Q: What about the “Feed consumption on a dry base” value (ALA groups, feed available at any time) of the same compound?
A: 23.6 kg/day per cow

Q: What about the “MUN compared with Control Groups” value (feed to which 5-ALA was added) of the same compound?
A: no particular differences
